Data as given in paper PMC7985146.
No constants are given. Whether binding was seen depends on the method and setting. Binding seen in cells or lysates may run through a third protein. Some entries that bind do so weakly or less than the wild type. Sequences can lack the tags named with a protein.

Amino acid sequences for entries named in this document (tags omitted).
UniProt P63279: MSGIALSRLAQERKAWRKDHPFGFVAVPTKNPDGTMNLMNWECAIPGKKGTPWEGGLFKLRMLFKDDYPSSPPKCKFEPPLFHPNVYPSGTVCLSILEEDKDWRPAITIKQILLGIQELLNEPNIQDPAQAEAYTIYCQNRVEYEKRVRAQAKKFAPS
UniProt P21796: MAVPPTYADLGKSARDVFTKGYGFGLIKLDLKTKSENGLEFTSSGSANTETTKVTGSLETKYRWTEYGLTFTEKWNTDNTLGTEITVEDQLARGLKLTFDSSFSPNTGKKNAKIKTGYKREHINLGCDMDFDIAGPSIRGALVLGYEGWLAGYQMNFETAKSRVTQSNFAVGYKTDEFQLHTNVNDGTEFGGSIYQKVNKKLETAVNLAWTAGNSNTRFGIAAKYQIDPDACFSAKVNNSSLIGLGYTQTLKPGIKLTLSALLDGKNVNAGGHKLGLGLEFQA

T1: HA-tagged rat hexokinase 2 K315R/K492R double mutant (rat) (UniProt P27881)
T1 sequence: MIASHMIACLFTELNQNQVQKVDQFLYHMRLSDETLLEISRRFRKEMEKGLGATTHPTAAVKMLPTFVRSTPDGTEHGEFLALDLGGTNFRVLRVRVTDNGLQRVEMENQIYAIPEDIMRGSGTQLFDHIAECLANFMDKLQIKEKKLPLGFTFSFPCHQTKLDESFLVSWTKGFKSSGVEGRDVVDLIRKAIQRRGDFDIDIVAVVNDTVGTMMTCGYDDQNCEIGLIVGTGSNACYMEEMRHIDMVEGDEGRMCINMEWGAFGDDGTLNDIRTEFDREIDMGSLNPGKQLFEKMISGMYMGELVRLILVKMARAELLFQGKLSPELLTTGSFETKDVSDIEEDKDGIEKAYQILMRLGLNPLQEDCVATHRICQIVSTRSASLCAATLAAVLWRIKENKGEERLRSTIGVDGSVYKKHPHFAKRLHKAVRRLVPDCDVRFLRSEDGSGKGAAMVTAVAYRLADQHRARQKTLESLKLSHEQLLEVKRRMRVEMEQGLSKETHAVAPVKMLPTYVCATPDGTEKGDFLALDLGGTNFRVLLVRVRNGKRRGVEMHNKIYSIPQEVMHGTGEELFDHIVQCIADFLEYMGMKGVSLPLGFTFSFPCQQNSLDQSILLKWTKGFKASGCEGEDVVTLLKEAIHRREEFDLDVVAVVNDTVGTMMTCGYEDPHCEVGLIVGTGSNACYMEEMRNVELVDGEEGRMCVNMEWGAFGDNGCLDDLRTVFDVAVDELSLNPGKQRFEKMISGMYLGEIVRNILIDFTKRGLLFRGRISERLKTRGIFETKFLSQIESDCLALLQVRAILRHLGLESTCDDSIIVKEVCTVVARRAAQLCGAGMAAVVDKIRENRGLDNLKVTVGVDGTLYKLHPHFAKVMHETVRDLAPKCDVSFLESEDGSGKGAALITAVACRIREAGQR

T2: HA-tagged rat hexokinase 2, wild-type (rat) (UniProt P27881)
T2 sequence: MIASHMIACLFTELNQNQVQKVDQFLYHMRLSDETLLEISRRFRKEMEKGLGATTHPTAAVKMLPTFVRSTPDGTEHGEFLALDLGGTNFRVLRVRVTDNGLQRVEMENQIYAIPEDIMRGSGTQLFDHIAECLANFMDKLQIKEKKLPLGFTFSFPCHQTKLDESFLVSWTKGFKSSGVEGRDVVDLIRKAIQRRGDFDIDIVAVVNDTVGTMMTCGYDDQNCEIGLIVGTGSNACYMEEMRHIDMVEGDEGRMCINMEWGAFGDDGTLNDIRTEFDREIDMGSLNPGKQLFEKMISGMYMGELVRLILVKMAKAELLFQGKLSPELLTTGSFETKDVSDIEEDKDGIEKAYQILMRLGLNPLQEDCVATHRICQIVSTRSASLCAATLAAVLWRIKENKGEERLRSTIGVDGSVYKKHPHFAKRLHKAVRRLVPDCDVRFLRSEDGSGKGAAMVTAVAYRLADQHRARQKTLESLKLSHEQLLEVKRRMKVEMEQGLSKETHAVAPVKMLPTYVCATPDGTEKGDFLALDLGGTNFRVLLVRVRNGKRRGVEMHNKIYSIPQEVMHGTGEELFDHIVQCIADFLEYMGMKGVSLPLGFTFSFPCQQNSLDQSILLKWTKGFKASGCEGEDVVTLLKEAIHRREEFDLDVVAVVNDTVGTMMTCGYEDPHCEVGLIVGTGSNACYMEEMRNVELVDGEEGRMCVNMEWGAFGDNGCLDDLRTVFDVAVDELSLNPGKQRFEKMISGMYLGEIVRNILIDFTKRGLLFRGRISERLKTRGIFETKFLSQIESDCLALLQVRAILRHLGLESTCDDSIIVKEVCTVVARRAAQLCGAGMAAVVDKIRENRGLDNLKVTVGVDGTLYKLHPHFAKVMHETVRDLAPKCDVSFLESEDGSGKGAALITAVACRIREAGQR

T3: HA-tagged rat hexokinase 2 K315R (rat) (UniProt P27881)
T3 sequence: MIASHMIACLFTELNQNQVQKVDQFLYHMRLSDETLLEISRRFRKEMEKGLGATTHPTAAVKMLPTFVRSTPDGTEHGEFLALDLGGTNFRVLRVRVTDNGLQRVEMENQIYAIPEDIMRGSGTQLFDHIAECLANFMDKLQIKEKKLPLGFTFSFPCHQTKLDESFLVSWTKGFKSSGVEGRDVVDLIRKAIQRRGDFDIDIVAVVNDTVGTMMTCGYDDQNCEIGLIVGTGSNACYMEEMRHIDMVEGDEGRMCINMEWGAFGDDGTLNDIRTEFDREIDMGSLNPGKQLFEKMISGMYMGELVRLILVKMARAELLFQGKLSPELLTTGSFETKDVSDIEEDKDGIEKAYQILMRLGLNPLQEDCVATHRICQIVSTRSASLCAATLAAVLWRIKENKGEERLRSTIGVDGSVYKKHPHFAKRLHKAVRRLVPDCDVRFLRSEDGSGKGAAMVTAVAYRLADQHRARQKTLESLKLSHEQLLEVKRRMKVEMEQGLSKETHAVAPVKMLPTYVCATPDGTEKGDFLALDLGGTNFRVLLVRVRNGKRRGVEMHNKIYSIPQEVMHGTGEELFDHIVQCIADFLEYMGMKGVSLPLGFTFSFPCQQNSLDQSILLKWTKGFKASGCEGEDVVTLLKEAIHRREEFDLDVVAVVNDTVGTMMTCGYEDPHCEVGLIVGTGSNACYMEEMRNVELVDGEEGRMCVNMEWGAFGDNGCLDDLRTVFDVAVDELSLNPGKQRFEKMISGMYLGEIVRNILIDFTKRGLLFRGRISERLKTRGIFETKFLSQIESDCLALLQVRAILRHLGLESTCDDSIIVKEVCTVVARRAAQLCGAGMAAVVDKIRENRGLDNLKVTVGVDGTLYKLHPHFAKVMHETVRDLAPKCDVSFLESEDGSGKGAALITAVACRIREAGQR

T4: HA-tagged rat hexokinase 2 K492R (rat) (UniProt P27881)
T4 sequence: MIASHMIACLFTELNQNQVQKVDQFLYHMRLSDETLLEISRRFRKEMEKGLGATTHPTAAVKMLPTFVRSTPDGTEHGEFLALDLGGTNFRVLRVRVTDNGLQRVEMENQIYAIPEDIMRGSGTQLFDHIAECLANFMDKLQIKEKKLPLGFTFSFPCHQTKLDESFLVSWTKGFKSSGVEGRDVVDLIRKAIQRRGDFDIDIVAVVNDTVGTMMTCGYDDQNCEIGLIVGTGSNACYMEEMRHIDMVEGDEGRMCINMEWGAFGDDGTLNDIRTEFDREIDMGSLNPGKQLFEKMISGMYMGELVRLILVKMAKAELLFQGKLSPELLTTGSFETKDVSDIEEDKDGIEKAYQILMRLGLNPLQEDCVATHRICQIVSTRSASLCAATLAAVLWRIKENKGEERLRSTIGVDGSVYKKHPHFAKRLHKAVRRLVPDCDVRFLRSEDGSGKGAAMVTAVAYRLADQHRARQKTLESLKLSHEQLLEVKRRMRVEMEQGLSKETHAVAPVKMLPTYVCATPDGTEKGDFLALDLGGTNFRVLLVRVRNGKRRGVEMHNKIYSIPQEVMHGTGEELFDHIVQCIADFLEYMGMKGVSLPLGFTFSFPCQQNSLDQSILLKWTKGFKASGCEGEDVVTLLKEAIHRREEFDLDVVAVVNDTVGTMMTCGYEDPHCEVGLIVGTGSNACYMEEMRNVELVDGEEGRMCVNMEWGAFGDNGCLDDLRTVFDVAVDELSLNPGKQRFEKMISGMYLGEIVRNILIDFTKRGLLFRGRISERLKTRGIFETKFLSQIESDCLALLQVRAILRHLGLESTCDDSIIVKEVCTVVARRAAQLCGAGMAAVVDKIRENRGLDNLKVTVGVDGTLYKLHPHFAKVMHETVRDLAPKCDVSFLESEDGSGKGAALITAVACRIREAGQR

T5: Flag-tagged SENP1 (UniProt Q9P0U3)
T5 sequence: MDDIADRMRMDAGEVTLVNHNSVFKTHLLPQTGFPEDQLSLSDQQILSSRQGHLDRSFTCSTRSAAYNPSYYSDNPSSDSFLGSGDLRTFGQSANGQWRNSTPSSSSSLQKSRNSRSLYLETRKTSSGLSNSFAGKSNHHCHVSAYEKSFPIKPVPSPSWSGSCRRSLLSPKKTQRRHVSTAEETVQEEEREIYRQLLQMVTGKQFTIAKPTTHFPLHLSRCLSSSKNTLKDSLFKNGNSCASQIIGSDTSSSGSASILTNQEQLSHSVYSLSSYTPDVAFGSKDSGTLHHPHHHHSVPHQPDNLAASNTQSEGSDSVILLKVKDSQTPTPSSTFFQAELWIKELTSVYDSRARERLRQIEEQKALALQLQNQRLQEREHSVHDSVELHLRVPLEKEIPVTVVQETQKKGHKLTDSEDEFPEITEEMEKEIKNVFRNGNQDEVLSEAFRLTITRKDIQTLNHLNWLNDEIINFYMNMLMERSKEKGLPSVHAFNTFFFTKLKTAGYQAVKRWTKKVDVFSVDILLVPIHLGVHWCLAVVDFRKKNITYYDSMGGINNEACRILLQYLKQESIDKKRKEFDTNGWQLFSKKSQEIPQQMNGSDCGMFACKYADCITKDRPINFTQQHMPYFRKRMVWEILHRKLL


Assays:
[1] = biological target: T1, HA-tagged rat hexokinase 2 K315R/K492R double mutant (rat); test: co-IP; 293T cells transfected with HA-tag HK2 WT or mutants; cell lysates precipitated with HA antibody and blotted by VDAC1 antibody (endogenous VDAC1)
[2] = biological target: T2, HA-tagged rat hexokinase 2, wild-type (rat); test: as above
[3] = biological target: T3, HA-tagged rat hexokinase 2 K315R (rat); test: as above
[4] = biological target: T4, HA-tagged rat hexokinase 2 K492R (rat); test: as above
Flag-tagged UBC9 = Flag-tagged UBC9 (UniProt P63279); test: co-IP; HEK293T cells transfected with both tagged plasmids (HK2-HA with Flag-Ubc9 or Flag-SENP1); immunoprecipitation and western blotting; which tag was precipitated is not told
Flag-tagged SENP1 = biological target: T5, Flag-tagged SENP1; test: as above

binding [1] | binding [2] | binding [3] | binding [4] | binding (Flag-tagged UBC9) | binding (Flag-tagged SENP1) | Molecule
binds | binds | binds | binds | – | – | VDAC1 (from UniProt P21796 1-283)
– | – | – | – | binds | binds | HA-tagged rat hexokinase 2, wild-type (enzyme, UniProt P27881 1-917) MIASHMIACLFTELNQNQVQKVDQFLYHMRLSDETLLEISRRFRKEMEKGLGATTHPTAAVKMLPTFVRSTPDGTEHGEFLALDLGGTNFRVLRVRVTDNGLQRVEMENQIYAIPEDIMRGSGTQLFDHIAECLANFMDKLQIKEKKLPLGFTFSFPCHQTKLDESFLVSWTKGFKSSGVEGRDVVDLIRKAIQRRGDFDIDIVAVVNDTVGTMMTCGYDDQNCEIGLIVGTGSNACYMEEMRHIDMVEGDEGRMCINMEWGAFGDDGTLNDIRTEFDREIDMGSLNPGKQLFEKMISGMYMGELVRLILVKMAKAELLFQGKLSPELLTTGSFETKDVSDIEEDKDGIEKAYQILMRLGLNPLQEDCVATHRICQIVSTRSASLCAATLAAVLWRIKENKGEERLRSTIGVDGSVYKKHPHFAKRLHKAVRRLVPDCDVRFLRSEDGSGKGAAMVTAVAYRLADQHRARQKTLESLKLSHEQLLEVKRRMKVEMEQGLSKETHAVAPVKMLPTYVCATPDGTEKGDFLALDLGGTNFRVLLVRVRNGKRRGVEMHNKIYSIPQEVMHGTGEELFDHIVQCIADFLEYMGMKGVSLPLGFTFSFPCQQNSLDQSILLKWTKGFKASGCEGEDVVTLLKEAIHRREEFDLDVVAVVNDTVGTMMTCGYEDPHCEVGLIVGTGSNACYMEEMRNVELVDGEEGRMCVNMEWGAFGDNGCLDDLRTVFDVAVDELSLNPGKQRFEKMISGMYLGEIVRNILIDFTKRGLLFRGRISERLKTRGIFETKFLSQIESDCLALLQVRAILRHLGLESTCDDSIIVKEVCTVVARRAAQLCGAGMAAVVDKIRENRGLDNLKVTVGVDGTLYKLHPHFAKVMHETVRDLAPKCDVSFLESEDGSGKGAALITAVACRIREAGQR
